Data taken from patent US20240026022A1.
Results are given in words; binding and its absence hold for the method and conditions named. Some binding calls cover weakened binding; strength is not graded here. Tags and fused reporters may be left off the sequences shown.

Amino acid sequences for entries named in this document (tags omitted). Residues count along the entry.
UniProt P02768, residues 25-609: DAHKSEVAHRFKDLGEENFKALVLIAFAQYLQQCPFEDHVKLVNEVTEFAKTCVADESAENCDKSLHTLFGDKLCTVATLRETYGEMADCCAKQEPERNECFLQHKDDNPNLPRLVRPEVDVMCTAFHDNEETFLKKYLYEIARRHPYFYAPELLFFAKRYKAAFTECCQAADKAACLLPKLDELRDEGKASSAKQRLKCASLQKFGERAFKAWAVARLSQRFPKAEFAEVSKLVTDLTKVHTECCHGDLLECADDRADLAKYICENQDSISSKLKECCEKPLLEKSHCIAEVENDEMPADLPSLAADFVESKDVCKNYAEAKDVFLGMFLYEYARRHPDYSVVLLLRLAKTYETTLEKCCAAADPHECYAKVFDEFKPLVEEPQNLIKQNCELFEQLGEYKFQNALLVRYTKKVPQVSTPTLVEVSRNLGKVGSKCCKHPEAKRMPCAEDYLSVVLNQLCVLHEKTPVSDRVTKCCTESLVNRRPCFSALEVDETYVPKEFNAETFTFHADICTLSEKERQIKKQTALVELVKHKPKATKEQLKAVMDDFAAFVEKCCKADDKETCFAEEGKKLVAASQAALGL

Columns and labels:
[1] = biological target: cynomolgus TfR-1 on reticulocytes (cynomolgus); assay: flow cytometry of blood from cynomolgus macaques 24 hr after TXP1 at 1.35 mg/kg, anti-hFc Alexa-647
[2] = biological target: recombinant cynomolgus TfR-1 (cynomolgus); assay: ELISA, plate-coated recombinant TfR-1
[3] = biological target: recombinant cynomolgus TfR-1 (cynomolgus); assay: summary of ELISA and SPR
[4] = biological target: recombinant cynomolgus TfR-1 (cynomolgus); assay: ELISA, plate coated with recombinant cynomolgus TfR-1, detection with anti-hFc HRP and TMB
HSA (human) = HSA (human) (UniProt P02768); assay: ELISA, plate coated with HSA (negative control), detection with anti-hFc HRP and TMB
[5] = biological target: recombinant cynomolgus TfR-1 (cynomolgus); assay: ELISA, plate-coated human or cynomolgus TfR-1 (FIG. 15)

| binding [1] | binding [2] | binding [3] | binding [4] | binding (HSA (human)) | binding [5] | Binder |
| --- | --- | --- | --- | --- | --- | --- |
| binds | binds | binds | binds |  |  | TXP1 (VNAR-txp1 fused to the N-terminus of human IgG1 Fc with attenuated effector function) (Fc fusion, not shown: a dimerising Fc or GST; small tags and cut ends) VNAR: ARVDQTPQTITKETGESLTINCVLRDSNCALSSTYWYRKKSGSTNEENISKGGRYVETVNSGSKSFSLKINDLTVEDSGTYRCNVVGTWCMSWRDVYGGGTAVTVNA |
|  |  |  |  | no binding (tested: about 4e-6 M) | binds | TXP1D1 (deimmunized variant VNAR-r2d1 fused to human IgG1 Fc) (Fc fusion, not shown: a dimerising Fc or GST; small tags and cut ends) VNAR: ARVDQTPQTATKETGESLTINCVLRDSNCALSSTYWYRKKSGSTNEENISKGGRYVETVDSGTKSFSLKINDLTVEDSGTYRCNVVGTWCMSWRDVSGDGTVVTVNA |
|  |  |  |  | no binding (tested: about 4e-6 M) | binds | TXP1D4 (deimmunized variant VNAR-r2d4 fused to human IgG1 Fc) (Fc fusion, not shown: a dimerising Fc or GST; small tags and cut ends) VNAR: ARVDQTPQTATKETGESLTINCVLRDSNCALSSTYWYRKKSGSTNEENISKGGRKYVETVESGSKSFSLKINDLTVEDSGTYRCNVVGTWCMSWRDVSGDGTVVTVNA |
